PubChem BioAssay AID504786 – Drosophila RNAi Screening Center | 2011
Aim: 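Knock-downs reducing HIF reporter induction by the iron chelator DFO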 (primary screen). Cells: Drosophila S2 cells with a stable HIF luciferase reporter. Reagent: long dsRNA against Drosophila genes, about 0.2 µg dsRNA per well of a 384-well plate. Duration: three days of knock-down, then 20 h of DFO before reading. Challenge: desferrioxamine (DFO) at 100 µM, an iron chelator that mimics hypoxia, for 20 h. Measured: 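HIF reporter luminescence in cells given 100 µM DFO for 20 h, using the mouse ldh-a hypoxia-response element, scored as per-plate z-scores; higher means greater loss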. Scale: z-score: higher = stronger loss of HIF reporter signal.
In all, the deposit lists about 21,000 reagents; shown is an unselected part of those with a known target gene and a result. 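Primary screen; positive scores mean lost reporter signal, so the sign may be inverted from the usual convention.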 A plus sign joins genes that one reagent is predicted to hit. Not all columns of the deposit are shown.

The first 5 entries as a preview:
CG15506 (GeneID 43498) [DRSC15047]
- z-score, replicate 1: 0

Tm2 (GeneID 41853) [DRSC16887]
- z-score, replicate 1: -0.3

CG15461 (GeneID 50122) [DRSC20532]
- z-score, replicate 1: -0.3

CG5707 (GeneID 48422) [DRSC08573]
- z-score, replicate 1: -0.2

FANCI (GeneID 35895) [DRSC06416]
- z-score, replicate 1: -0.2

The listing, repeating the preview:
CG15506 (GeneID 43498) [DRSC15047]
- z-score, replicate 1: 0

Tm2 (GeneID 41853) [DRSC16887]
- z-score, replicate 1: -0.3

CG15461 (GeneID 50122) [DRSC20532]
- z-score, replicate 1: -0.3

CG5707 (GeneID 48422) [DRSC08573]
- z-score, replicate 1: -0.2

FANCI (GeneID 35895) [DRSC06416]
- z-score, replicate 1: -0.2

CG3199 (GeneID 41725) [DRSC15467]
- z-score, replicate 1: 0

CG17005 (GeneID 34249) [DRSC02556]
- z-score, replicate 1: -0.4

AANATL4 (GeneID 37213) [DRSC06774]
- z-score, replicate 1: -0.3

CG11037 (GeneID 40317) [DRSC11631]
- z-score, replicate 1: -0.3

Axs (GeneID 32645) [DRSC19333]
- z-score, replicate 1: -0.1

CG13127 (GeneID 34335) [DRSC02223]
- z-score, replicate 1: -0.1

Rab9D + Rab9Fa + Rab9E [DRSC19853]
- z-score, replicate 1: -0.3

CG6209 (GeneID 36517) [DRSC06968]
- z-score, replicate 1: 0

Pgm2a (GeneID 35923) [DRSC07068]
- z-score, replicate 1: -0.4

vkg (GeneID 33726) [DRSC03632]
- z-score, replicate 1: -0.3

CG18130 (GeneID 32161) [DRSC19790]
- z-score, replicate 1: -0.4

moi + Tgs1 [DRSC16371]
- z-score, replicate 1: -0.9

CG14422 (GeneID 31286) [DRSC17919]
- z-score, replicate 1: -0.3

Gr22b (GeneID 117492) [DRSC20911]
- z-score, replicate 1: 0.1

CG8010 (GeneID 32921) [DRSC20072]
- z-score, replicate 1: -0.1

CG15109 (GeneID 37195) [DRSC06536]
- z-score, replicate 1: -0.1

ninaG (GeneID 41369) [DRSC16102]
- z-score, replicate 1: -0.4

Mid1 (GeneID 37953) [DRSC04230]
- z-score, replicate 1: -0.3

Mid1 (GeneID 37953) [DRSC04231]
- z-score, replicate 1: -0.2

Mid1 (GeneID 37953) [DRSC04308]
- z-score, replicate 1: -0.3

fog (GeneID 33148) [DRSC20646]
- z-score, replicate 1: -0.3

CG5131 (GeneID 35057) [DRSC02817]
- z-score, replicate 1: -0.4

Lcp1 (GeneID 35817) [DRSC07455]
- z-score, replicate 1: -0.4

CG16903 (GeneID 31178) [DRSC18561]
- z-score, replicate 1: 0.2

CG7557 (GeneID 39278) [DRSC10878]
- z-score, replicate 1: -0.4

Mical (GeneID 41225) [DRSC14349]
- z-score, replicate 1: -0.3

Mical (GeneID 41225) [DRSC14351]
- z-score, replicate 1: 0

Mical (GeneID 41225) [DRSC15365]
- z-score, replicate 1: -0.4

Mical (GeneID 41225) [DRSC15366]
- z-score, replicate 1: -0.2

CG1552 (GeneID 32035) [DRSC19665]
- z-score, replicate 1: -0.4

Tbc1d15-17 (GeneID 33184) [DRSC00313]
- z-score, replicate 1: -0.3

Ino80 (GeneID 42314) [DRSC14760]
- z-score, replicate 1: -1.4

Ino80 (GeneID 42314) [DRSC15333]
- z-score, replicate 1: -0.4

Ino80 (GeneID 42314) [DRSC15501]
- z-score, replicate 1: -1.4

Sec63 (GeneID 38819) [DRSC11002]
- z-score, replicate 1: -0.3

CG18675 (GeneID 50169) [DRSC08536]
- z-score, replicate 1: -0.2

bon (GeneID 44235) [DRSC16914]
- z-score, replicate 1: -0.7

EMC5 (GeneID 35159) [DRSC02469]
- z-score, replicate 1: -0.1

pasi1 (GeneID 42139) [DRSC16299]
- z-score, replicate 1: -0.6

ACXD (GeneID 38284) [DRSC07843]
- z-score, replicate 1: 0.1

Coq6 (GeneID 33777) [DRSC03040]
- z-score, replicate 1: -0.3

CkIalpha (GeneID 32221) [DRSC20231]
- z-score, replicate 1: 0.1

CG4582 (GeneID 43086) [DRSC15605]
- z-score, replicate 1: -0.3

park + Targ3 [DRSC11617]
- z-score, replicate 1: -0.3

inv (GeneID 36239) [DRSC07633]
- z-score, replicate 1: 0

VAChT (GeneID 42795) [DRSC13311]
- z-score, replicate 1: -0.2

VAChT (GeneID 42795) [DRSC16608]
- z-score, replicate 1: -0.1
